These are yes or no findings as the source states them, for the method shown. Binding seen in cells or lysates may run through a third protein. These calls come from enrichment with a bait or labelling near it, and not all partners need be listed. For some assays here: Tags and fused reporters may be left off the sequences shown.

Chains of the proteins cited; added tags and fusions are not shown.
UniProt Q6NZF1: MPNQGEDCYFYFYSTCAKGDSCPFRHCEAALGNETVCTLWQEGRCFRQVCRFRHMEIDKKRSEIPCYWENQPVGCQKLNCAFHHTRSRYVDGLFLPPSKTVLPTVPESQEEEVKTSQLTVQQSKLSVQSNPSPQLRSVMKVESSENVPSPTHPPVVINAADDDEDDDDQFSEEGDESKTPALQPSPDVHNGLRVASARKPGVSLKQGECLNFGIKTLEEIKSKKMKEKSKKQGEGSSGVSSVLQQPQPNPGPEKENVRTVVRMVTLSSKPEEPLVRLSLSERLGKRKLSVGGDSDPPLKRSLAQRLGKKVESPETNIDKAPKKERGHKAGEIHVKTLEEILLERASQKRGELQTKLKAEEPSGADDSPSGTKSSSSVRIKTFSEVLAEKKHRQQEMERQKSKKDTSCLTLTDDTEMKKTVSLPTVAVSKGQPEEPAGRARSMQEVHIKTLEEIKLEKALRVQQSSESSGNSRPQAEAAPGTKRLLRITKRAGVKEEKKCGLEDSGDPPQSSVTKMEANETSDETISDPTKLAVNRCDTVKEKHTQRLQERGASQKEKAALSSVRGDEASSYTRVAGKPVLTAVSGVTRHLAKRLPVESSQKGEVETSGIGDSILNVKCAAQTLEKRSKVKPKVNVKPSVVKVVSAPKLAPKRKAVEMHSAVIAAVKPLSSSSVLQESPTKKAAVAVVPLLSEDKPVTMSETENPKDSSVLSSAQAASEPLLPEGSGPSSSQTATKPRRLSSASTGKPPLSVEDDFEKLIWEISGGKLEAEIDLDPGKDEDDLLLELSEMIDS

The target in one assay is GFP-ZC3H11A(wt) (human) (UniProt O75152). The experiment in a line: affinity purification with mass spectrometry; GFP, GFP-ZC3H11A(wt) or GFP-ZC3H11A(dZF) as baits in transfected HeLa cells; lysate with benzonase; GFP-Trap magnetic beads, 1 h at 4 °C; LC-MS/MS.
The target of assay [1] is ZC3H11A, endogenous, mouse embryonic stem cells (mouse (endogenous in mESCs)) (UniProt Q6NZF1). The experiment in a line: affinity purification with mass spectrometry; anti-ZC3H11A and anti-IgG immunoprecipitation from mouse embryonic stem cell lysates treated with benzonase; mass spectrometry.
For a further assay, the target named is T1, GFP-ZC3H11A(dZF) (human) (UniProt O75152).
T1 sequence: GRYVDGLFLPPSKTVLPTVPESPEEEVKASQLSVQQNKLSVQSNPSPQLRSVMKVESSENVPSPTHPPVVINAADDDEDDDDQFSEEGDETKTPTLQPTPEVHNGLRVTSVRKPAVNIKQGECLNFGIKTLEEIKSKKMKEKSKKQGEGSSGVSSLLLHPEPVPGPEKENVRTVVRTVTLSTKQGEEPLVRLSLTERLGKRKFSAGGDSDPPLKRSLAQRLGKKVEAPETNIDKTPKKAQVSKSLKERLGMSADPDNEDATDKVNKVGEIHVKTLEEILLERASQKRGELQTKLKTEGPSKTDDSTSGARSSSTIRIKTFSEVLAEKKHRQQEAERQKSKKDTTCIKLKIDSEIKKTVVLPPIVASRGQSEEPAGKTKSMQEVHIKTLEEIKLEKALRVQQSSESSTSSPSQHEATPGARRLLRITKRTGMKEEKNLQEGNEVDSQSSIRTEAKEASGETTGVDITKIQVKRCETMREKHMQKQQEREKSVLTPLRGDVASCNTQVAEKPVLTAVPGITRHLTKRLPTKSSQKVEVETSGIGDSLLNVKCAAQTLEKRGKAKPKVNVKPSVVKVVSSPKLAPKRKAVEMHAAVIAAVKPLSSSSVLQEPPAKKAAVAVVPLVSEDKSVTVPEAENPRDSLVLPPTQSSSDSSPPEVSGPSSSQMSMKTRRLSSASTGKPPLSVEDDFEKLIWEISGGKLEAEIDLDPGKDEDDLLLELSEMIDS
Nature of the assay: affinity purification with mass spectrometry; GFP, GFP-ZC3H11A(wt) or GFP-ZC3H11A(dZF) as baits in transfected HeLa cells; lysate with benzonase; GFP-Trap magnetic beads, 1 h at 4 °C; LC-MS/MS.

Assay [2] has as its target ZC3H11A, endogenous, human HeLa cells (human (endogenous in HeLa)) (UniProt O75152). The experiment in a line: affinity purification with mass spectrometry; anti-ZC3H11A (heavy) against anti-IgG (light) immunoprecipitation from SILAC-labelled HeLa lysates treated with nuclease; Dynabeads Protein G; LC-MS/MS.
The target in the next assay is ZC3H11A(wt)-Flag (human) (UniProt O75152). The experiment in a line: affinity purification with mass spectrometry.

B1: THOC1, endogenous, HeLa cells (protein, UniProt Q96FV9 1-657)
chain: MSPTPPLFSLPEARTRFTKSTREALNNKNIKPLLSTFSQVPGSENEKKCTLDQAFRGILEEEIINHSSCENVLAIISLAIGGVTEGICTASTPFVLLGDVLDCLPLDQCDTIFTFVEKNVATWKSNTFYSAGKNYLLRMCNDLLRRLSKSQNTVFCGRIQLFLARLFPLSEKSGLNLQSQFNLENVTVFNTNEQESTLGQKHTEDREEGMDVEEGEMGDEEAPTTCSIPIDYNLYRKFWSLQDYFRNPVQCYEKISWKTFLKYSEEVLAVFKSYKLDDTQASRKKMEELKTGGEHVYFAKFLTSEKLMDLQLSDSNFRRHILLQYLILFQYLKGQVKFKSSNYVLTDEQSLWIEDTTKSVYQLLSENPPDGERFSKMVEHILNTEENWNSWKNEGCPSFVKERTSDTKPTRIIRKRTAPEDFLGKGPTKKILMGNEELTRLWNLCPDNMEACKSETREHMPTLEEFFEEAIEQADPENMVENEYKAVNNSNYGWRALRLLARRSPHFFQPTNQQFKSLPEYLENMVIKLAKELPPPSEEIKTGEDEDEEDNDALLKENESPDVRRDKPVTGEQIEVFANKLGEQWKILAPYLEMKDSEIRQIECDSEDMKMRAKQLLVAWQDQEGVHATPENLINALNKSGLSDLAESLTNDNETNS
Regarding B1, in the assay with GFP-ZC3H11A(wt) (human), the binding result is “binds”.

B2: POLDIP3, endogenous, mouse embryonic stem cells (protein, UniProt Q8BG81 1-420)
chain: MADLSLDELIRKRGTAAKGRLSVRPGIGGVRSRVGIQHSLVNQPARTATFQQRFDARQKIGLSDARLKLGVKDAREKLLQKDARFRIKGKVQDAREMLNSRKQQGTVPQKPRQVADAREKISLKRRSPAAFTSPPIGTVTPALKLTKTIQVPQQKAMVPLHAHPAGMRINVVNNHQAKQNLYDLDEDDDIVVPVPPKQMKFAATGSLVHHMTGLSSSKLSMSKALPLTKVVQNDAYTAPVLPSSVRTKALTSMSRTLVNKEEPPKELPPAEPVLSPLEGTKMTVNNLHPRVTEEDIVELFCVCGALKRARLVHPGVAEVVFVKKDDAITAYKKYNNRCLDGQPMKCNLHMNGNVITSDQPILLRLSDSPSVKKESELPRRGNPASSNPPAEVDPDTVLRALFKSSGASVTTQPTEFKIKL
As to B2, in assay [1], the binding result is “binds”.

B3: POLDIP3, endogenous, HeLa cells (protein, UniProt Q9BY77 1-421)
chain: MADISLDELIRKRGAAAKGRLNARPGVGGVRSRVGIQQGLLSQSTRTATFQQRFDARQKIGLSDARLKLGVKDAREKLLQKDARFRIKGKVQDAREMLNSRKQQTTVPQKPRQVADAREKISLKRSSPAAFINPPIGTVTPALKLTKTIQVPQQKAMAPLHPHPAGMRINVVNNHQAKQNLYDLDEDDDGIASVPTKQMKFAASGGFLHHMAGLSSSKLSMSKALPLTKVVQNDAYTAPALPSSIRTKALTNMSRTLVNKEEPPKELPAAEPVLSPLEGTKMTVNNLHPRVTEEDIVELFCVCGALKRARLVHPGVAEVVFVKKDDAITAYKKYNNRCLDGQPMKCNLHMNGNVITSDQPILLRLSDSPSMKKESELPRRVNSASSSNPPAEVDPDTILKALFKSSGASVTTQPTEFKIKL
As to B3, the binding entry (with GFP-ZC3H11A(dZF) (human); with GFP-ZC3H11A(wt) (human); in assay [2]) was “binds” in each case.

B4: THOC6, endogenous, HeLa cells (protein, UniProt Q86W42 1-341)
chain: MERAVPLAVPLGQTEVFQALQRLHMTIFSQSVSPCGKFLAAGNNYGQIAIFSLSSALSSEAKEESKKPVVTFQAHDGPVYSMVSTDRHLLSAGDGEVKAWLWAEMLKKGCKELWRRQPPYRTSLEVPEINALLLVPKENSLILAGGDCQLHTMDLETGTFTRVLRGHTDYIHCLALRERSPEVLSGGEDGAVRLWDLRTAKEVQTIEVYKHEECSRPHNGRWIGCLATDSDWMVCGGGPALTLWHLRSSTPTTIFPIRAPQKHVTFYQDLILSAGQGRCVNQWQLSGELKAQVPGSSPGLLSLSLNQQPAAPECKVLTAAGNSCRVDVFTNLGYRAFSLSF
Consider B4, for which the binding entry with GFP-ZC3H11A(wt) (human) is “binds”.

B5: CHTOP, endogenous, mouse embryonic stem cells (protein, UniProt Q9CY57 1-249)
chain: MAAQSAPKVVLKSTTKMSLNERFTNMLKNKQPMPVNIRASMQQQQQLASARNRRLAQQMENRPSVQAALKLKQKSLKQRLGKSNIQARLGRPIGALARGAIGGRGLPIIQRGLPRGGLRGGRATRTLLRGGMSLRGQNLLRGGRAVAPRMGLRRGGVRGRGGPGRGGLGRGAMGRGGIGGRGRGMIGRGRGGFGGRGRGRGRGRGALTRPVLTKEQLDNQLDAYMSKTKGHLDAELDAYMAQTDPETND
With B5, the binding entry in assay [1] is reported as “binds”.

B6: PABPN1, endogenous, HeLa cells (protein, UniProt Q86U42 1-306)
chain: MAAAAAAAAAAGAAGGRGSGPGRRRHLVPGAGGEAGEGAPGGAGDYGNGLESEELEPEELLLEPEPEPEPEEEPPRPRAPPGAPGPGPGSGAPGSQEEEEEPGLVEGDPGDGAIEDPELEAIKARVREMEEEAEKLKELQNEVEKQMNMSPPPGNAGPVIMSIEEKMEADARSIYVGNVDYGATAEELEAHFHGCGSVNRVTILCDKFSGHPKGFAYIEFSDKESVRTSLALDESLFRGRQIKVIPKRTNRPGISTTDRGFPRARYRARTTNYNSSRSRFYSGFNSRPRGRVYRGRARATSWYSPY
Consider B6, for which the binding result (with ZC3H11A(wt)-Flag (human); with GFP-ZC3H11A(wt) (human); in assay [2]) was “binds” throughout.

B7: PABPN1, endogenous, mouse embryonic stem cells (protein, UniProt Q8CCS6 1-302)
chain: MAAAAAAAAAAGAAGGRGSGPGRRRHLVPGAGGEAGEGDPGGAGDYGNGLESEELEPGELLPEPEPEEEPPRPRAPPGAPGPGPGSGAPGSQEEEEEPGLVEADPGDGAIEDPELEAIKARVREMEEEAEKLKELQNEVEKQMNMSPPPGNAGPVIMSLEEKMEADARSIYVGNVDYGATAEELEAHFHGCGSVNRVTILCDKFSGHPKGFAYIEFSDKESVRTSLALDESLFRGRQIKVIPKRTNRPGISTTDRGFPRSRYRARTTNYNSSRSRFYSGFNSRPRGRIYRGRARATSWYSPY
As to B7, the binding entry in assay [1] is given as “binds”.

Values taken from paper PMC10371797.
